From the supplement of paper PMC10849652
Some of the results follow.

By UniProt entry, the sequences of proteins in these tests, tags left out. Where a name states a change or a piece, a line headed by the entry shows the natural chain unless it says otherwise.
UniProt Q9NV70: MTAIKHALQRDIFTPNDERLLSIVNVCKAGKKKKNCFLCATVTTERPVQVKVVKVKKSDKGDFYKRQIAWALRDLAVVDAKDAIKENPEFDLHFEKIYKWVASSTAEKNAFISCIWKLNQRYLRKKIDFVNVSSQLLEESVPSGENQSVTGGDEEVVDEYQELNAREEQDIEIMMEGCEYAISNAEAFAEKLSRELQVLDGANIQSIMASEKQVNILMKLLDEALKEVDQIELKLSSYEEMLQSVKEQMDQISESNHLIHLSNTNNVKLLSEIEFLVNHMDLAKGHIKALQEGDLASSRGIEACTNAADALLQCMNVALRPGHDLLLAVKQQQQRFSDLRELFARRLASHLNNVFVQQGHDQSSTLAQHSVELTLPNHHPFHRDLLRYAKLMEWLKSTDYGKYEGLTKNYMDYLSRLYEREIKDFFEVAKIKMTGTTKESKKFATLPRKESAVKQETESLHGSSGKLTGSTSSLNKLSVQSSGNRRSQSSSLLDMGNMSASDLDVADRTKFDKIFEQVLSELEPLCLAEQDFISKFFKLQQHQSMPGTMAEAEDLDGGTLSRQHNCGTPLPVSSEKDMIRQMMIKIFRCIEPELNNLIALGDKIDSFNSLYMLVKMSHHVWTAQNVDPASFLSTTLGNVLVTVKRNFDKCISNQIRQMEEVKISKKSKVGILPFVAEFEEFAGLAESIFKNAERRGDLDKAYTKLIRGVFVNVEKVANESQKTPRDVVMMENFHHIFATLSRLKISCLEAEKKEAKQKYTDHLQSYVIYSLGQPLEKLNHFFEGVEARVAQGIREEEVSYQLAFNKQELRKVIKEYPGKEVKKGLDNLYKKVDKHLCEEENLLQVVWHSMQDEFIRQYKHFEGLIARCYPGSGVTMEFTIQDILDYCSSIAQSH
UniProt Q9NZB2: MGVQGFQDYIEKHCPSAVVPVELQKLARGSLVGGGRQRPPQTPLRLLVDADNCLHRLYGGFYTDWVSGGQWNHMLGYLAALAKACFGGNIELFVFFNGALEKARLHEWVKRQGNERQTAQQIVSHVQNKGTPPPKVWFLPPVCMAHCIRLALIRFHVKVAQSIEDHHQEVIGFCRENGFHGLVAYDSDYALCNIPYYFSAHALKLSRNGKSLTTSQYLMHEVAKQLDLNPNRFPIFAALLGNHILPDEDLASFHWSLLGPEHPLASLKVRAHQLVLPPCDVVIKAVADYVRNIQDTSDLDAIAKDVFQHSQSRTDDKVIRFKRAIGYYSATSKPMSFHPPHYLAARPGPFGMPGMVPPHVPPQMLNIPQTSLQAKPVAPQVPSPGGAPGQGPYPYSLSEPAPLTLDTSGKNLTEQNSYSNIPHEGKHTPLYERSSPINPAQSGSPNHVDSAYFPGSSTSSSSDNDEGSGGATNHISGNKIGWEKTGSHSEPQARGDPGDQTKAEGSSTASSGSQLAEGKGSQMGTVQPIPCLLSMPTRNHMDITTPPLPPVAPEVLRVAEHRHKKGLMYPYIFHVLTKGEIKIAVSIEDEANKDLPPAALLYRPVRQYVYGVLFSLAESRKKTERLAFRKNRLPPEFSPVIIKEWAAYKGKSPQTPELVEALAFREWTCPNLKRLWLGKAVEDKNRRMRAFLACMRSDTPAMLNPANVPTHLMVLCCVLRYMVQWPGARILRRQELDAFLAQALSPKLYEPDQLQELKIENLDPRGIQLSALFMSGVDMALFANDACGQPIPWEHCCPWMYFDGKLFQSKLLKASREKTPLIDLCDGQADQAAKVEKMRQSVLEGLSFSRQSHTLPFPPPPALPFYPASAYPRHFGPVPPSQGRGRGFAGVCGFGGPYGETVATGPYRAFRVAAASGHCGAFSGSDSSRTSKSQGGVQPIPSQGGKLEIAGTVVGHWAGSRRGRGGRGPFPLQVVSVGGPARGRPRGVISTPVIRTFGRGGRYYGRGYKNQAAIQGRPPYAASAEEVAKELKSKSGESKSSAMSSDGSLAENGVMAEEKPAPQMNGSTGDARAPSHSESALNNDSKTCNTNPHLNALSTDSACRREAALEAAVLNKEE
UniProt P38117: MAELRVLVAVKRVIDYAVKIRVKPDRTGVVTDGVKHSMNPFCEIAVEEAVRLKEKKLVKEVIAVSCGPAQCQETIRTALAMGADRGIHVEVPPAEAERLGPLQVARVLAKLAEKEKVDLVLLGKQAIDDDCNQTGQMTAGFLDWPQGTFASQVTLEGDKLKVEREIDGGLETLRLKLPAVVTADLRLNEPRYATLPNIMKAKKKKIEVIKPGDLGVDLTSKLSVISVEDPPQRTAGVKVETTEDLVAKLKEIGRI
UniProt Q9H790: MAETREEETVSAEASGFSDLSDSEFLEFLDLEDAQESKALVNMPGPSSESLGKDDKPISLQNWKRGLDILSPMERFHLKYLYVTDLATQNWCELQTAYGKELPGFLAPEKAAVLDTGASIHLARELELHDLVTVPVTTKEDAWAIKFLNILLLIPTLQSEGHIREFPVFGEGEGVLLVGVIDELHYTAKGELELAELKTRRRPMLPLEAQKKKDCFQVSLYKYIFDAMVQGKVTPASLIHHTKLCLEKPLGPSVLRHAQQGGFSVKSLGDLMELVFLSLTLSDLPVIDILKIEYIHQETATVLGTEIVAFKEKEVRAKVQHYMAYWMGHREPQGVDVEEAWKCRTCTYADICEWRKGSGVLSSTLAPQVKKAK
UniProt O94905: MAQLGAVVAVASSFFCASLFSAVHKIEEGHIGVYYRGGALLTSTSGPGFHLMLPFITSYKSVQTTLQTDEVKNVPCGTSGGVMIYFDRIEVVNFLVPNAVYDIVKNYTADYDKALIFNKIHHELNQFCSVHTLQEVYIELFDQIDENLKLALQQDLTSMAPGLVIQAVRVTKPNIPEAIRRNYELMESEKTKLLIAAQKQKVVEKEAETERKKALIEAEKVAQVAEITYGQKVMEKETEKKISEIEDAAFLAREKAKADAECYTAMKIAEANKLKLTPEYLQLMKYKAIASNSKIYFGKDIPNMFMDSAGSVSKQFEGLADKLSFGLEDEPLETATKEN
UniProt Q96A26: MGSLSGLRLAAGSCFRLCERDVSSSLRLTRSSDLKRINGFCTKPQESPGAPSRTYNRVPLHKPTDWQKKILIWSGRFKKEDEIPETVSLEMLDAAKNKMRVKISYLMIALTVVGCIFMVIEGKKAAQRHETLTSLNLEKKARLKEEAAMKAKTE
UniProt Q5RKV6, whole entry, looked up: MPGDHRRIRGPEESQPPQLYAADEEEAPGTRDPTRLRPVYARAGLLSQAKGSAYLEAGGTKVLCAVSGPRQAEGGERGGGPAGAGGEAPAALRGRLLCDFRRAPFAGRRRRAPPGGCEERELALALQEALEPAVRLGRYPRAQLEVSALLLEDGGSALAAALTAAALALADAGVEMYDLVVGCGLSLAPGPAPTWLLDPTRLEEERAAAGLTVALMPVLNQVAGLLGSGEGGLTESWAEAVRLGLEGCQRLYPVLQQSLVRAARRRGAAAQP
UniProt Q9Y3B2, whole entry, looked up: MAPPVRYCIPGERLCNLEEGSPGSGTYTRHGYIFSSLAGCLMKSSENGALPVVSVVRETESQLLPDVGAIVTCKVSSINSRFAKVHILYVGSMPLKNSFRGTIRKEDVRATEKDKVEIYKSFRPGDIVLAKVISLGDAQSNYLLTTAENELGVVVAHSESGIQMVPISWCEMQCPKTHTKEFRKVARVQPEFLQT
UniProt Q96DF8: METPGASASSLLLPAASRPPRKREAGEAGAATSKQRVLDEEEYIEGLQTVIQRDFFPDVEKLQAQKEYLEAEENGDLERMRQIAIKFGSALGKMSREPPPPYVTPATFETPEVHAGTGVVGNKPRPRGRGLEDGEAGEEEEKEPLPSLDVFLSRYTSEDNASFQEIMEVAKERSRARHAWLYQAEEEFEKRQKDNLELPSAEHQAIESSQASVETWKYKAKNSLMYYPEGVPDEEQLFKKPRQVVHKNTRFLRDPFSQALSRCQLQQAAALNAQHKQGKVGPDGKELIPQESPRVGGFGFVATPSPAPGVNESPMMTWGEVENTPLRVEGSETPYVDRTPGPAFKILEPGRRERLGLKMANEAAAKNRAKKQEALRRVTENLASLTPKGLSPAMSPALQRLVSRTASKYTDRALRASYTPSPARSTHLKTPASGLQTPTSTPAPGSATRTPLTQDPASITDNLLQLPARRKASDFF
UniProt Q96GK7: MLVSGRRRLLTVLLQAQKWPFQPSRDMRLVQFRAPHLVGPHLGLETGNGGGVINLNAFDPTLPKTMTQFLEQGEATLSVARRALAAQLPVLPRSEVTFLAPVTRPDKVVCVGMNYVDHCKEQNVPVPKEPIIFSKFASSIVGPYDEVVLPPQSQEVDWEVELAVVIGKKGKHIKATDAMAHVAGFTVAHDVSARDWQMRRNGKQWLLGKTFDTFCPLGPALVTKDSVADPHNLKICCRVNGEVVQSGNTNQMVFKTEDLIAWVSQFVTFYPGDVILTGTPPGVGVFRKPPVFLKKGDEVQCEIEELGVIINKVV
UniProt Q96PL5: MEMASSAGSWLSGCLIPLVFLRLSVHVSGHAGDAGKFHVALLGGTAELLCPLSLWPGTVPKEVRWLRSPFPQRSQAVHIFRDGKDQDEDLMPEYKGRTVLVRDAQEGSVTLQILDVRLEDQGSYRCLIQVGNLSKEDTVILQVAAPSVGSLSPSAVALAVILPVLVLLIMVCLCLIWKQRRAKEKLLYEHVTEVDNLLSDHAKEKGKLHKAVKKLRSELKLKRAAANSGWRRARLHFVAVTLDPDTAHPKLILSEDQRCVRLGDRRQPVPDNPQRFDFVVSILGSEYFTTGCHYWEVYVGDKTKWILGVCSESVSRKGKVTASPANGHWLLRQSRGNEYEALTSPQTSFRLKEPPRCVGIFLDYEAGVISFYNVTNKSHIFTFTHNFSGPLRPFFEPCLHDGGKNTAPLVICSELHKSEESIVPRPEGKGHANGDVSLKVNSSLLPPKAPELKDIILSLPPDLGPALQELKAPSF
UniProt Q9NZ08: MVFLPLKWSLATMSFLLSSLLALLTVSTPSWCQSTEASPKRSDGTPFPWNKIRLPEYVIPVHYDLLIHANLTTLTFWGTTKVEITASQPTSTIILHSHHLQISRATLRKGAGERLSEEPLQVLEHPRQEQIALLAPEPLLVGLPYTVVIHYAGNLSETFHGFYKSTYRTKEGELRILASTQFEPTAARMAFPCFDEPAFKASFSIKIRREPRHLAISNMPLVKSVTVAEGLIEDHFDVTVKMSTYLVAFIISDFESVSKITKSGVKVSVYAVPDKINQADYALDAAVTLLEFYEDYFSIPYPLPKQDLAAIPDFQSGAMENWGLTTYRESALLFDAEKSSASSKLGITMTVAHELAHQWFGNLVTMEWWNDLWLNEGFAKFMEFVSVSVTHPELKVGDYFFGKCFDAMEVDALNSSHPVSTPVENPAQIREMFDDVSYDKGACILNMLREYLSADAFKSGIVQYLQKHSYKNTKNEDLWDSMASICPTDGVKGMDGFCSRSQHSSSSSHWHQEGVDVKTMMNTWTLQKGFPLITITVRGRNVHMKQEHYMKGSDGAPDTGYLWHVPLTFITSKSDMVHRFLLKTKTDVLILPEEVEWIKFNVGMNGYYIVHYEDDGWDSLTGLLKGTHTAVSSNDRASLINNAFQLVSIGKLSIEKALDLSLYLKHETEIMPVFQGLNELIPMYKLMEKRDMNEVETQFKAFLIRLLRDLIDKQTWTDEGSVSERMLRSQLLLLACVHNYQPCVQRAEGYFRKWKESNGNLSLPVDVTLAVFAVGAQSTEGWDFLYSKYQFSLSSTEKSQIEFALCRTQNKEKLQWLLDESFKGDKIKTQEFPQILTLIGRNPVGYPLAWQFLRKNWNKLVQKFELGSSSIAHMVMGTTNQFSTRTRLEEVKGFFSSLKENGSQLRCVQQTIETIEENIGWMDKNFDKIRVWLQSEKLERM
UniProt Q5W0V3: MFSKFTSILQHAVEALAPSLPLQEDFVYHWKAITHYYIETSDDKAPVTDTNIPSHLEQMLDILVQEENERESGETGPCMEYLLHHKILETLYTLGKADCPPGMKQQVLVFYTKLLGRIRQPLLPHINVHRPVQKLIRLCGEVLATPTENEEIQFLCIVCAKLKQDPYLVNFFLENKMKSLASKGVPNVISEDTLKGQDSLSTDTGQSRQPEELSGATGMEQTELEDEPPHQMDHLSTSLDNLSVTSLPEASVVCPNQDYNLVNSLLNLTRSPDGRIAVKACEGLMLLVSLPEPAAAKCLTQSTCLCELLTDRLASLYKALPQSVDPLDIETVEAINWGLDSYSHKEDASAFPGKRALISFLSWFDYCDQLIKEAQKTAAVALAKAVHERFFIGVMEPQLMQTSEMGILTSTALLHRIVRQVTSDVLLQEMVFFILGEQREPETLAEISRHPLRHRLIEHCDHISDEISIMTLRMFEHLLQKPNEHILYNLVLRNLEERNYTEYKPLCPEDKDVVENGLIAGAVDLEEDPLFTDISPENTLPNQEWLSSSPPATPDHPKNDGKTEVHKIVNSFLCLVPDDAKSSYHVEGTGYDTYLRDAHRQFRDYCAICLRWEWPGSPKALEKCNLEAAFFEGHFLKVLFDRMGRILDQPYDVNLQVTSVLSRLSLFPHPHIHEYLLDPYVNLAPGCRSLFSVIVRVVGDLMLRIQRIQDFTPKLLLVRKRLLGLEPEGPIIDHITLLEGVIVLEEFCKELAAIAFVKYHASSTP

Columns and labels:
Assay in all cases: log2 fold change, soluble protein after heating vs DMSO (PISA); higher = thermal stabilisation; K562 cells, 10 uM, 30 min; active = over 0.2 and 3.5 SD of the protein, either way, in both replicates (recomputed)
[1] = compound: CC1=C(C=C(C=C1)NC(=O)C2=CC(=CC=C2)C(C)(C)C#N)NC3=CC4=C(C=C3)N=CN(C4=O)C
Summary of the method: (§1)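 Soluble protein was defined as the supernatant after 21,000xg for 90 min. It came from K562 cells at 2×10^6 cells/mL given 10 μM compound for 30 min, heated in aliquots for 3 min across 48°C-58°C, pooled, and extracted in PBS with 0.5% NP-40 at 4°C, and was quantified by TMTpro 16plex LC-MS/MS with equalised channel sums. Thermal stability against control samples, from duplicates, is reported as log2 fold change.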

[2] = compound: CC1=C(C=C(C=C1)NC(=O)C2=CC(=CC=C2)N(C)C)NC(=O)C3=CC=C(C=C3)O
Summary of the method: as §1

[3] = compound: CC1=CC=C(C=C1)SC2=C3C=C(SC3=CN=C2)C(=O)N
Summary of the method: as §1

[4] = compound: CC1=NC(=CC=C1)C2=C(N=C(N2)C(C)(C)C)C3=CC4=NC=CN=C4C=C3
Summary of the method: as §1

Nexturastat A = compound: CCCCN(Cc1ccc(C(=O)NO)cc1)C(=O)Nc1ccccc1 [Nexturastat A]
Summary of the method: as §1

vemurafenib = compound: CCCS(=O)(=O)Nc1ccc(F)c(C(=O)c2c[nH]c3ncc(-c4ccc(Cl)cc4)cc23)c1F [vemurafenib]
Summary of the method: as §1

[5] = compound: CCCS(=O)(=O)Nc1ccc(F)c(C(=O)c2c[nH]c3ncc(Cl)cc23)c1F
Summary of the method: as §1

[6] = compound: CCCc1cc(C)[nH]c(=O)c1CNC(=O)c1cc(-c2ccnc(N3CCN(C)CC3)c2)cc2c1cnn2C(C)C
Summary of the method: as §1

givinostat = compound: CCN(CC)Cc1ccc2cc(COC(=O)Nc3ccc(C(=O)NO)cc3)ccc2c1 [givinostat]
Summary of the method: as §1

barasertib = compound: CCN(CCCOc1ccc2c(Nc3cc(CC(=O)Nc4cccc(F)c4)[nH]n3)ncnc2c1)CCOP(=O)(O)O [barasertib]
Summary of the method: as §1

Measured: log2 fold change

ERVK3-1, A0A0U1RQV1
inactive: [1] -0.041 | [2] -0.075 | [3] -0.03 | [4] 0.023 | Nexturastat A 0.811 | vemurafenib 0.218 | [5] -0.033 | [6] -0.055 | givinostat 0.011 | barasertib 0.077

EXOC1 (UniProt Q9NV70)
inactive: [1] -0.026 | [2] -0.01 | [3] 0.019 | [4] 0.027 | Nexturastat A 0.115 | vemurafenib -0.023 | [5] 0.028 | [6] 0.08 | givinostat 0.07 | barasertib 0.082

FAM117A (UniProt Q9C073)
inactive: [1] 0.036 | [2] 0.013 | [3] -0.007 | [4] -0.034 | Nexturastat A 0.004 | vemurafenib -0.023 | [5] -0.004 | [6] -0.001 | givinostat 0.109 | barasertib 0.053

FAM120A isoform 6 (UniProt Q9NZB2)
inactive: [1] 0.022 | [2] 0.046 | [3] -0.097 | [4] -0.08 | Nexturastat A 0.23 | vemurafenib -0.089 | [5] -0.038 | [6] 0.066 | givinostat -0.079 | barasertib -0.178

ERI3 (UniProt O43414)
inactive: [1] 0.038 | [2] -0.003 | [3] -0.02 | [4] 0.027 | Nexturastat A 0.006 | vemurafenib -0.031 | [5] -0.005 | [6] -0.004 | givinostat 0.009 | barasertib 0

ETFB (UniProt P38117)
inactive: [1] 0.007 | [2] -0.019 | [3] -0.028 | [4] 0.044 | Nexturastat A -0.041 | vemurafenib -0.003 | [5] -0.038 | [6] 0.03 | givinostat -0.01 | barasertib 0.048

ERGIC1 (UniProt Q969X5)
inactive: [1] 0.011 | [2] -0.013 | [3] 0.02 | [4] 0.013 | Nexturastat A 0.028 | vemurafenib -0.018 | [5] -0.022 | [6] 0 | givinostat 0.005 | barasertib 0.002

EPB41L2 (UniProt O43491)
inactive: [1] -0.002 | [2] 0.001 | [3] -0.005 | [4] -0.007 | Nexturastat A -0.02 | vemurafenib 0.016 | [5] -0.027 | [6] -0.06 | givinostat 0.003 | barasertib -0.005

FABP5 (UniProt Q01469)
inactive: [1] -0.011 | [2] -0.032 | [3] -0.005 | [4] -0.01 | Nexturastat A -0.09 | vemurafenib 0.068 | [5] 0.152 | [6] -0.113 | givinostat -0.045 | barasertib 0.002

EPN1 (UniProt Q9Y6I3)
inactive: [1] -0.002 | [2] -0.059 | [3] 0.041 | [4] -0.029 | Nexturastat A -0.026 | vemurafenib 0.05 | [5] 0.032 | [6] -0.005 | givinostat 0.036 | barasertib 0.021

ERLEC1 (UniProt Q96DZ1)
inactive: [1] 0.033 | [2] -0.001 | [3] -0.015 | [4] 0.006 | Nexturastat A 0.017 | vemurafenib -0.021 | [5] 0.003 | [6] -0.064 | givinostat -0.016 | barasertib -0.003

EXO5 (UniProt Q9H790)
inactive: [1] -0.068

ERLIN2 (UniProt O94905)
inactive: [1] -0.045 | [2] -0.024 | [3] 0.009 | [4] -0.037 | Nexturastat A 0.104 | vemurafenib -0.062 | [5] 0.008 | [6] 0.12 | givinostat 0.038 | barasertib -0.003

EPHX2 (UniProt P34913)
inactive: [1] 0.112 | [2] 0.129 | [3] 0.031 | [4] -0.017 | Nexturastat A 0.193 | vemurafenib -0.012 | [5] -0.025 | [6] -0.075 | givinostat -0.014 | barasertib -0.029

FAM162A (UniProt Q96A26)
inactive: [1] -0.006 | [2] 0.01 | [3] 0.051 | [4] -0.026 | Nexturastat A -0.047 | vemurafenib 0.025 | [5] 0.047 | [6] -0.037 | givinostat -0.019 | barasertib -0.034

EXOC6 (UniProt Q8TAG9)
inactive: [1] -0.054 | [2] -0.028 | [3] 0.104 | [4] 0.032 | Nexturastat A 0.133 | vemurafenib 0.104 | [5] 0.022 | [6] 0.009 | givinostat 0.075 | barasertib -0.018

ERGIC2 (UniProt Q96RQ1)
inactive: [1] 0.008 | [2] 0.016 | [3] -0.048 | [4] 0.102 | Nexturastat A -0.115 | vemurafenib 0.019 | [5] 0.021 | [6] -0.063 | givinostat 0.009 | barasertib 0.019

EXOSC6 (UniProt Q5RKV6)
inactive: [1] 0.039 | [2] 0.025 | [3] 0.053 | [4] 0.025 | Nexturastat A -0.015 | vemurafenib 0.017 | [5] 0.018 | [6] -0.029 | givinostat 0 | barasertib 0

ETFRF1 (UniProt Q6IPR1)
inactive: [1] -0.114 | [2] 0.002 | [3] 0 | [4] 0.016 | Nexturastat A 0.005 | vemurafenib 0.086 | [5] -0.079 | [6] 0.033 | givinostat 0.022 | barasertib -0.046

EXOSC1 (UniProt Q9Y3B2)
inactive: [1] 0.015 | [2] -0.086 | [3] -0.005 | [4] -0.006 | Nexturastat A 0.17 | vemurafenib 0.014 | [5] 0.037 | [6] 0.062 | givinostat 0.082 | barasertib 0.012

ESS2 (UniProt Q96DF8)
inactive: [1] -0.085 | [2] 0.091 | [3] -0.024 | [4] -0.018 | Nexturastat A 0.032 | vemurafenib -0.01 | [5] -0.013 | [6] -0.075 | givinostat -0.01 | barasertib -0.025

FAHD2A (UniProt Q96GK7)
inactive: [1] -0.028 | [2] -0.004 | [3] 0.004 | [4] -0.002 | Nexturastat A -0.037 | vemurafenib 0 | [5] 0.008 | [6] -0.01 | givinostat -0.019 | barasertib -0.017

EZR (UniProt P15311)
inactive: [1] 0.021 | [2] -0.01 | [3] -0.005 | [4] 0.02 | Nexturastat A -0.071 | vemurafenib 0.007 | [5] -0.005 | [6] 0.014 | givinostat -0.037 | barasertib 0.009

ERGIC3 isoform 3 (UniProt Q9Y282)
inactive: [1] -0.035 | [2] -0.006 | [3] 0.011 | [4] 0.023 | Nexturastat A -0.122 | vemurafenib 0.045 | [5] 0.039 | [6] -0.022 | givinostat 0.018 | barasertib -0.004

ERMAP (UniProt Q96PL5)
inactive: [1] -0.15 | [2] 0.051 | [3] -0.057 | [4] 0.061 | Nexturastat A -0.054 | vemurafenib -0.04 | [5] -0.097 | [6] -0.166 | givinostat 0.057 | barasertib -0.025

EPB41L3 (UniProt Q9Y2J2)
inactive: [1] 0.009 | [2] 0.031 | [3] 0.044 | [4] 0.03 | Nexturastat A -0.028 | vemurafenib -0.006 | [5] -0.011 | [6] 0 | givinostat -0.086 | barasertib 0.002

2 records picked at random from those above, as already listed:
EPB41L3 (UniProt Q9Y2J2)
inactive: [1] 0.009 | [2] 0.031 | [3] 0.044 | [4] 0.03 | Nexturastat A -0.028 | vemurafenib -0.006 | [5] -0.011 | [6] 0 | givinostat -0.086 | barasertib 0.002

EZR (UniProt P15311)
inactive: [1] 0.021 | [2] -0.01 | [3] -0.005 | [4] 0.02 | Nexturastat A -0.071 | vemurafenib 0.007 | [5] -0.005 | [6] 0.014 | givinostat -0.037 | barasertib 0.009

Following part

FAM192A (UniProt Q9GZU8)
inactive: [1] -0.062 | [2] 0.007 | [3] 0 | [4] -0.016 | Nexturastat A -0.115 | vemurafenib -0.039 | [5] 0.032 | [6] -0.036 | givinostat -0.04 | barasertib 0.016

FAM118B (UniProt Q9BPY3)
inactive: [1] 0 | [2] 0.03 | [3] 0.037 | [4] 0.055 | Nexturastat A 0.099 | vemurafenib 0.048 | [5] 0.003 | [6] 0.044 | givinostat 0.063 | barasertib 0.093

ERAP1 isoform 2 (UniProt Q9NZ08)
inactive: [1] 0 | [2] -0.001 | [3] 0.002 | [4] -0.065 | Nexturastat A 0.059 | vemurafenib -0.046 | [5] -0.012 | [6] 0.035 | givinostat 0.016 | barasertib -0.013

FAM160B1 (UniProt Q5W0V3)
inactive: [1] 0.033 | [2] 0.128 | [3] -0.019 | [4] 0.051 | Nexturastat A -0.023 | vemurafenib 0.149 | [5] 0.034 | [6] 0.014 | givinostat 0.016 | barasertib 0.109
